According to paper PMC3286403:
No constants are given. Whether binding was seen depends on the method and setting. A result given as binding can be weak or reduced; the word gives no strength. Tags and fused reporters may be left off the sequences shown.

Experiments:
[1] = molecular target: His6-tagged HIV-1 integrase wild type (HIV-1); assay: AlphaScreen or HTRF; HTRF; His-IN 80 nM, GST-LEDGF/p75 or GST-TNPO3 5 nM, anti-GST-Europium Cryptate and anti-His-XL665; 25 mM Hepes pH 7.3, 150 mM NaCl, 2 mM MgCl2, 0.1% BSA, 1 mM DTT; read 2 h after incubation; signal as percent of IN WT ΔF; both purified
[2] = molecular target: His6-tagged HIV-1 integrase wild type (HIV-1); assay: pull-down; Ni-NTA (Ni-charged resin) pull-down by His6-IN; 2 μg His6-IN with 2 μg GST protein in 200 μl of 150 mM NaCl, 25 mM imidazole, 2 mM MgCl2, 0.1% NP40, 50 mM Tris HCl pH 7.4, 4 °C; SDS-PAGE and protein staining; both purified

B1: GST-TNPO3 full length (protein, UniProt Q9Y5L0 1-923)
chain: MEGAKPTLQLVYQAVQALYHDPDPSGKERASFWLGELQRSVHAWEISDQLLQIRQDVESCYFAAQTMKMKIQTSFYELPTDSHASLRDSLLTHIQNLKDLSPVIVTQLALAIADLALQMPSWKGCVQTLVEKYSNDVTSLPFLLEILTVLPEEVHSRSLRIGANRRTEIIEDLAFYSSTVVSLLMTCVEKAGTDEKMLMKVFRCLGSWFNLGVLDSNFMANNKLLALLFEVLQQDKTSSNLHEAASDCVCSALYAIENVETNLPLAMQLFQGVLTLETAYHMAVAREDLDKVLNYCRIFTELCETFLEKIVCTPGQGLGDLRTLELLLICAGHPQYEVVEISFNFWYRLGEHLYKTNDEVIHGIFKAYIQRLLHALARHCQLEPDHEGVPEETDDFGEFRMRVSDLVKDLIFLIGSMECFAQLYSTLKEGNPPWEVTEAVLFIMAAIAKSVDPENNPTLVEVLEGVVRLPETVHTAVRYTSIELVGEMSEVVDRNPQFLDPVLGYLMKGLCEKPLASAAAKAIHNICSVCRDHMAQHFNGLLEIARSLDSFLLSPEAAVGLLKGTALVLARLPLDKITECLSELCSVQVMALKKLLSQEPSNGISSDPTVFLDRLAVIFRHTNPIVENGQTHPCQKVIQEIWPVLSETLNKHRADNRIVERCCRCLRFAVRCVGKGSAALLQPLVTQMVNVYHVHQHSCFLYLGSILVDEYGMEEGCRQGLLDMLQALCIPTFQLLEQQNGLQNHPDTVDDLFRLATRFIQRSPVTLLRSQVVIPILQWAIASTTLDHRDANCSVMRFLRDLIHTGVANDHEEDFELRKELIGQVMNQLGQQLVSQLLHTCCFCLPPYTLPDVAEVLWEIMQVDRPTFCRWLENSLKGLPKETTVGAVTVTHKQLTDFHKQVTSAEECKQVCWALRDFTRLFR
**Q.** Which results are given for B1?
**A.** binding [1]: binds; binding [2]: binds
